Some of the results follow.
Compound: c1cn2cc(-c3ccc4cn[nH]c4c3)nc(Nc3ccc(N4CCOCC4)cc3)c2n1 [entospletinib]
Experiment: log2 fold change, soluble protein after heating vs DMSO (PISA); higher = thermal stabilisation; K562 cells, 10 uM, 30 min; active = over 0.2 and 3.5 SD of the protein, either way, in both replicates (recomputed)
In short: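 K562 cells at 2×10^6 cells/mL were treated for 30 min with 10 μM compound, and aliquots were heated for 3 min over 48°C-58°C before pooling. Extraction used PBS with 0.5% NP-40 at 4°C, and soluble protein was the supernatant after 21,000xg for 90 min, measured by TMTpro 16plex LC-MS/MS with channel sums equalised. Thermal stability values, relative to control samples and from duplicates, are log2 fold changes.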

By UniProt entry, the sequences of proteins in these tests, tags left out. Where a name states a change or a piece, a line headed by the entry shows the natural chain unless it says otherwise.
UniProt Q13868, whole entry, looked up: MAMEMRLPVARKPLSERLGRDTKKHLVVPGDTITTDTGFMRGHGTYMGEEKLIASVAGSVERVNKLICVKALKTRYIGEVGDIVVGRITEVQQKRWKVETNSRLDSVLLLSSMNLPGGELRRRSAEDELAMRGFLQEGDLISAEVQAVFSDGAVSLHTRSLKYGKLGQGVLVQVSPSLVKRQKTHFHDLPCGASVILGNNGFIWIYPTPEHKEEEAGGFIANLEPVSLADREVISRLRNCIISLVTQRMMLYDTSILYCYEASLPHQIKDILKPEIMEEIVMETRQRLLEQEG
UniProt Q5BKY9: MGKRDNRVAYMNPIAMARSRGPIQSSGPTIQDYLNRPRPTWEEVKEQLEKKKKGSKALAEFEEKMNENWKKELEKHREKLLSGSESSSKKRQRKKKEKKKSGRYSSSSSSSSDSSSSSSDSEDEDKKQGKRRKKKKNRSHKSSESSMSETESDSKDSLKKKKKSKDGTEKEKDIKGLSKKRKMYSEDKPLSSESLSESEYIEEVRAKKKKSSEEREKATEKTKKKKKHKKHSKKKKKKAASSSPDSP
UniProt Q9GZU8: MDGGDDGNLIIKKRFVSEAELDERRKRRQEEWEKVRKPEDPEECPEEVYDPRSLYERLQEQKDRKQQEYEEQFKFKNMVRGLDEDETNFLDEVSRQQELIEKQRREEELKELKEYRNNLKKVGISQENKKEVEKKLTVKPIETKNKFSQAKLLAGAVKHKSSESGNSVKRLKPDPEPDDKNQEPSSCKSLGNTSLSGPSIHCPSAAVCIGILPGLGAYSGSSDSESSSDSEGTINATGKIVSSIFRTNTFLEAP
UniProt O43491, whole entry, looked up: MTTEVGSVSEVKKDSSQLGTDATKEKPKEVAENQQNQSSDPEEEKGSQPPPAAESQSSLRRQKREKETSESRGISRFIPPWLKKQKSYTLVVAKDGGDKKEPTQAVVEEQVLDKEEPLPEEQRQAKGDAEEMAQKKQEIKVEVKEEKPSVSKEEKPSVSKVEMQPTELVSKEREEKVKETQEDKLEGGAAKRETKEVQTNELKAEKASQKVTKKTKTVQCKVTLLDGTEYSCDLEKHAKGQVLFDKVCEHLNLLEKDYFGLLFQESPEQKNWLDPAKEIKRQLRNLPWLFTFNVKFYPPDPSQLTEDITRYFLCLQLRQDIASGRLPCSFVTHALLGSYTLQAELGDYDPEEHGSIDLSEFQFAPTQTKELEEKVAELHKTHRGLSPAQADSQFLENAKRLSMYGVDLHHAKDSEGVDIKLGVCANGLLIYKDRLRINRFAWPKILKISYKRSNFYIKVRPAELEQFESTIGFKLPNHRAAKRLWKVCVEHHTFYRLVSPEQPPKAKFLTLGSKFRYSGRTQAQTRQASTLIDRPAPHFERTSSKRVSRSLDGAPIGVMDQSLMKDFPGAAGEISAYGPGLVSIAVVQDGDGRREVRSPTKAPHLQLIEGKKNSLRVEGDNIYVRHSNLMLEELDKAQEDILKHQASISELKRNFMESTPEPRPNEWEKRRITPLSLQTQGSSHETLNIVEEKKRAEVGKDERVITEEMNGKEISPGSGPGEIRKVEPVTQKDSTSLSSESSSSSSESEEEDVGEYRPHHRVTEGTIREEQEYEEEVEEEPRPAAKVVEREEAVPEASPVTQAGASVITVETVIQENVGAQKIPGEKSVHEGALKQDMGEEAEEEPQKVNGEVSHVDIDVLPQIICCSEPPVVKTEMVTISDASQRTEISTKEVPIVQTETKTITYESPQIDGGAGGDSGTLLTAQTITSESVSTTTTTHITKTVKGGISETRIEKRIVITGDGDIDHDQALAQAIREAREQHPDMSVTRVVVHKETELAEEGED
UniProt Q13158: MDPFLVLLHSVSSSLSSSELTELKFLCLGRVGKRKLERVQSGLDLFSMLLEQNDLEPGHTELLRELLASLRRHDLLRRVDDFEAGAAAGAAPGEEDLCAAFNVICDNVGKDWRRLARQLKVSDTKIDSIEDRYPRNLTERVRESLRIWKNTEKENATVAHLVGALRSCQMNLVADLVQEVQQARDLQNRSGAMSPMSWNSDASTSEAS
UniProt Q7Z309: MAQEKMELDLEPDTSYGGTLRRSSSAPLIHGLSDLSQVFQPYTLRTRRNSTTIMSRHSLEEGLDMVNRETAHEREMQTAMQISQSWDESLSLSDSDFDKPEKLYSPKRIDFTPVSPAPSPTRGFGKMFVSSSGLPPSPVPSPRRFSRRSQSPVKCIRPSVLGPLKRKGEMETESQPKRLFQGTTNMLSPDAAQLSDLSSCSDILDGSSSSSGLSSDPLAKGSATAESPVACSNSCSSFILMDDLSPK
UniProt Q6P587: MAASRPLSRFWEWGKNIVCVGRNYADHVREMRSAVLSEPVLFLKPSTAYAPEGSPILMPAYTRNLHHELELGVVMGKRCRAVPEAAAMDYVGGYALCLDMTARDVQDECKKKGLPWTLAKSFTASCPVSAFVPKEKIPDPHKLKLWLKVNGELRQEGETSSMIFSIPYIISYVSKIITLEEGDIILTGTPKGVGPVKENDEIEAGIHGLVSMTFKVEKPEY
UniProt Q5RKV6, whole entry, looked up: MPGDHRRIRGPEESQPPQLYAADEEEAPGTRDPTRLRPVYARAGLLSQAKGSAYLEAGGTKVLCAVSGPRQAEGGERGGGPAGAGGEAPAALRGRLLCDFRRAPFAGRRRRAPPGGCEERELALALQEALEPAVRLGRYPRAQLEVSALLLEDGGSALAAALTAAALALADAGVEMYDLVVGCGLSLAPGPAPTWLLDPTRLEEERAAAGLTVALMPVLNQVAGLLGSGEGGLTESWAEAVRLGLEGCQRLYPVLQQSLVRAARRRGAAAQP
UniProt Q86V87: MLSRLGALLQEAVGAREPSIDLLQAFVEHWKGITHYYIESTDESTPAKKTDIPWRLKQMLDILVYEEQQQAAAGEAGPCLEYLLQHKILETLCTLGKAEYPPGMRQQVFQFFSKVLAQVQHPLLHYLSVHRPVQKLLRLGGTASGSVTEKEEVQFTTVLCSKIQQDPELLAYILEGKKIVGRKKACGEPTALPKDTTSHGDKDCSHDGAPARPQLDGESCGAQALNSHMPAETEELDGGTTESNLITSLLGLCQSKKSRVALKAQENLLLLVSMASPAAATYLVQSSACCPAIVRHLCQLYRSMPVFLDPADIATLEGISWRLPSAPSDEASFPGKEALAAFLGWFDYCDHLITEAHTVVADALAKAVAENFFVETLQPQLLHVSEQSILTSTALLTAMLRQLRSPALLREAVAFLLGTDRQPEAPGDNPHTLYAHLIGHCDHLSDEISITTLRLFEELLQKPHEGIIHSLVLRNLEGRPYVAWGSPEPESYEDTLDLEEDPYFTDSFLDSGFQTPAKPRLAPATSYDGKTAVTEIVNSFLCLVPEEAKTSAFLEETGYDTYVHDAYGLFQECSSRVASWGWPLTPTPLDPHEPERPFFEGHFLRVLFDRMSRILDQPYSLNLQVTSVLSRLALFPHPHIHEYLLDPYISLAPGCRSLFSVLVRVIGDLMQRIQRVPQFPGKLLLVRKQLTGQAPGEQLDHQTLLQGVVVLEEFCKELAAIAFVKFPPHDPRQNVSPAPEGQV
UniProt O60645: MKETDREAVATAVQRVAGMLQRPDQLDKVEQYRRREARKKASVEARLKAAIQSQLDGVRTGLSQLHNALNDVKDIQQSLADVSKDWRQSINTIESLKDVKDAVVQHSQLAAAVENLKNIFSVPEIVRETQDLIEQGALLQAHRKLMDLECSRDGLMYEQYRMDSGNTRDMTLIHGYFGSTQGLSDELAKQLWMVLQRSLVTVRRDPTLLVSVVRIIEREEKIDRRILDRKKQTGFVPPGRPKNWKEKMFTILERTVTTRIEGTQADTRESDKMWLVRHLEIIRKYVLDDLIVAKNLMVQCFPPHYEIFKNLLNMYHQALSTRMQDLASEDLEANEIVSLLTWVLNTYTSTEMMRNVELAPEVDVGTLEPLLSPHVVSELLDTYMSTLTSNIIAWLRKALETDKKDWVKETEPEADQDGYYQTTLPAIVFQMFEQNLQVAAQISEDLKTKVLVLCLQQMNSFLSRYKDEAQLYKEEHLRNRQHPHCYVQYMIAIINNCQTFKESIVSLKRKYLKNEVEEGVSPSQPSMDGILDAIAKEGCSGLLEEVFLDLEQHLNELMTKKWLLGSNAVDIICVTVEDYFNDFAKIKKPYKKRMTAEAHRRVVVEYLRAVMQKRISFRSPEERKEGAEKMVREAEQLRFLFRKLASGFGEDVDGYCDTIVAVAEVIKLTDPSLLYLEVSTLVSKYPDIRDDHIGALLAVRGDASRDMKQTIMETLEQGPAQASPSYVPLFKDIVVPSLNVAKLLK
UniProt P05413, whole entry, looked up: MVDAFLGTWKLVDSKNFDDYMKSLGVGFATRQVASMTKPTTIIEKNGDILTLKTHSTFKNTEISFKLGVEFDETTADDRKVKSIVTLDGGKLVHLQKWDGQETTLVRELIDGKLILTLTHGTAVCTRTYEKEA
UniProt Q9Y2C4: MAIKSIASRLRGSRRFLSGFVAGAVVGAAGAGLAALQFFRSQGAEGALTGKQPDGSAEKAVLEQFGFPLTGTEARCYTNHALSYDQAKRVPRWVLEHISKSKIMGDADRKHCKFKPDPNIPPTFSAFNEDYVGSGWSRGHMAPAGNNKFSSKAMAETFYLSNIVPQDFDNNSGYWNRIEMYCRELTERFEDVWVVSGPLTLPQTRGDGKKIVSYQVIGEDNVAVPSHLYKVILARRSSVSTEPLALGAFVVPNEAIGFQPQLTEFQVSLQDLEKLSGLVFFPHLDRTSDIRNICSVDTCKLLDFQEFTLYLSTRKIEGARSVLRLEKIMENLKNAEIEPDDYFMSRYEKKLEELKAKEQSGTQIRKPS
UniProt P42566: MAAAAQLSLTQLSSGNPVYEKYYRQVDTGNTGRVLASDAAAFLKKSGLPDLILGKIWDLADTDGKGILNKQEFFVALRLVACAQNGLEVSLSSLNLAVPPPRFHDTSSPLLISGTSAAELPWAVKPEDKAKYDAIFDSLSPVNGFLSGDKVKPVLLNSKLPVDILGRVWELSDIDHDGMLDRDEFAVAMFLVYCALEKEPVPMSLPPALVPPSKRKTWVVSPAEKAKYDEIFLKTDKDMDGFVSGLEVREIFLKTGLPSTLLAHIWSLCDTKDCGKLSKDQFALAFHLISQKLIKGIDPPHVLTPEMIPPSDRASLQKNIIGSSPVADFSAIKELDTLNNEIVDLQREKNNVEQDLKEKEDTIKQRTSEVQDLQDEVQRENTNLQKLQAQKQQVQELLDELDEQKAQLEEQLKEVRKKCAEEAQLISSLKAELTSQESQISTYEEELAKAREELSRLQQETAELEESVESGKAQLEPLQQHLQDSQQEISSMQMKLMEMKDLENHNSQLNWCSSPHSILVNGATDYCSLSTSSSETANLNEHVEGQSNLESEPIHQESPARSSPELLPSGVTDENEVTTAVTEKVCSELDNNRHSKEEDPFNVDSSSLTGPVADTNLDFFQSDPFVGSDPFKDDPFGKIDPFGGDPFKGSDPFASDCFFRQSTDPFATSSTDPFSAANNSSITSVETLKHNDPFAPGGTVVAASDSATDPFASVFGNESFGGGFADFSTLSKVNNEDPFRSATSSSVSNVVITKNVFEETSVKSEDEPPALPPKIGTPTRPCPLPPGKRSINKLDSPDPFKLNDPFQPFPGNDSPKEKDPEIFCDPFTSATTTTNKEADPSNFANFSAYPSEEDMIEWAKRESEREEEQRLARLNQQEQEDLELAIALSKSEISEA
UniProt Q96EK7: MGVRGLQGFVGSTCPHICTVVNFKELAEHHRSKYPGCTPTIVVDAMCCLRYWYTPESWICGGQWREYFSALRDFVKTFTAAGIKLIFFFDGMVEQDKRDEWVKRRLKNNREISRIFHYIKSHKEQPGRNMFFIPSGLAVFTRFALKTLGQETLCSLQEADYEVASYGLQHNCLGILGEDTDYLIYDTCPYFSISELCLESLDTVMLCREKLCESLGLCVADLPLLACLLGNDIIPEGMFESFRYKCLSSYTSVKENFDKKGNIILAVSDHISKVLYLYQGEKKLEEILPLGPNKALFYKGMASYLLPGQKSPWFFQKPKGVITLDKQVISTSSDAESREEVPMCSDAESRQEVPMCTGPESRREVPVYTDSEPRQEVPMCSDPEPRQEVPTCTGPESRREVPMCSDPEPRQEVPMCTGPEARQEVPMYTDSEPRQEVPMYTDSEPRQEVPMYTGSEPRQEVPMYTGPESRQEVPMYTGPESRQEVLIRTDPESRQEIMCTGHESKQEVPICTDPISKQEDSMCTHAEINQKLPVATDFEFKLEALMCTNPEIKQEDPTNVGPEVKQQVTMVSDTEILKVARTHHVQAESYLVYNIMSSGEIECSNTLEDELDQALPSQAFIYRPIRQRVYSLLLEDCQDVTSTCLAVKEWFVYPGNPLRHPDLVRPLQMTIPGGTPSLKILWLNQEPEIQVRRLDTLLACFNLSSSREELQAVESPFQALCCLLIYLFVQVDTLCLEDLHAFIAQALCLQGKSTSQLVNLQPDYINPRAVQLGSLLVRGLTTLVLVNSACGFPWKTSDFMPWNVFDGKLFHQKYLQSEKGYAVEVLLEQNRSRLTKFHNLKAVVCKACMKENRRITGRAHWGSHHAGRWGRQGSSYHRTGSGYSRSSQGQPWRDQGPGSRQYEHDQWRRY

log2 fold change, inactive:
FAM136A (UniProt Q96C01) -0.059
EXOSC4 (UniProt Q9NPD3) -0.038
EXOSC2 (UniProt Q13868) -0.025
FAM133B (UniProt Q5BKY9) -0.023
FAM192A (UniProt Q9GZU8) 0.018
EPB41L2 (UniProt O43491) 0.024
FADD (UniProt Q13158) 0.048
F2 (UniProt P00734) 0.089
ESYT2 (UniProt H7BXI1) 0.03
FAM122B isoform 2 (UniProt Q7Z309) 0.074
FAHD1 (UniProt Q6P587) -0.008
EXOSC6 (UniProt Q5RKV6) 0.003
FAM160B2 (UniProt Q86V87) 0.284
ERCC6L (UniProt Q2NKX8) 0.137
EXOC3 (UniProt O60645) 0.027
ERI3 (UniProt O43414) 0.021
EPPK1 (UniProt P58107) 0.16
FABP3 (UniProt P05413) 0.259
EXOG (UniProt Q9Y2C4) -0.074
ETF1 (UniProt P62495) -0.029
EPS15 (UniProt P42566) -0.008
EXOSC3 (UniProt Q9NQT5) -0.021
FAM120B (UniProt Q96EK7) -0.046

Quoted at random: 2 entries already listed, in no set order.
log2 fold change, inactive:
FAM160B2 (UniProt Q86V87) 0.284
ERCC6L (UniProt Q2NKX8) 0.137

Reference: the supplement of paper PMC10849652
